Results are given in words; binding and its absence hold for the method and conditions named. Binding seen in cells or lysates may run through a third protein. Some entries that bind do so weakly or less than the wild type. For some of these results: Tags and fused reporters may be left off the sequences shown.
How the values were obtained:
FLAG-HA-HOOK3 (human) = molecular target: T1, FLAG-HA-HOOK3 (human) (UniProt Q86VS8); test: co-IP + SEC
T1 sequence: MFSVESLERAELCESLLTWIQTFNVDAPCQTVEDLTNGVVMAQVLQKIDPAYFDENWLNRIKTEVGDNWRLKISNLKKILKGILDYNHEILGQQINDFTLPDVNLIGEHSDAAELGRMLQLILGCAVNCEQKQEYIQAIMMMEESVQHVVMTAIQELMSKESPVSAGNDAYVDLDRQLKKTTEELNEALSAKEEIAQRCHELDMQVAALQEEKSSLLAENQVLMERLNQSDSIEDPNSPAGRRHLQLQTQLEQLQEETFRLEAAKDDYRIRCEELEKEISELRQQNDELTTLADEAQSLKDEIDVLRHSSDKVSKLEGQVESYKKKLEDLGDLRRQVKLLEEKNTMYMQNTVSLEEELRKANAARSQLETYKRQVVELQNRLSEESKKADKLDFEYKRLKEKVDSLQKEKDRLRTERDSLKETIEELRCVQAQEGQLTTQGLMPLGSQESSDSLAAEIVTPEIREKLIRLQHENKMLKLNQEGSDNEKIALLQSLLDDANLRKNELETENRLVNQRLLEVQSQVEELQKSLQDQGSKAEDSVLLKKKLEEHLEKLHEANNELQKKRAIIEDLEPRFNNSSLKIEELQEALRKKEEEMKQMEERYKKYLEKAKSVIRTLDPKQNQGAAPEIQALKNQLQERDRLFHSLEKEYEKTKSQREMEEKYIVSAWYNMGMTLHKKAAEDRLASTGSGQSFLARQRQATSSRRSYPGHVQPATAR

The chains behind the UniProt entries cited, without tags or fusion partners. Where a name states a change or a piece, a line headed by the entry shows the natural chain unless it says otherwise.
UniProt O43896, whole entry: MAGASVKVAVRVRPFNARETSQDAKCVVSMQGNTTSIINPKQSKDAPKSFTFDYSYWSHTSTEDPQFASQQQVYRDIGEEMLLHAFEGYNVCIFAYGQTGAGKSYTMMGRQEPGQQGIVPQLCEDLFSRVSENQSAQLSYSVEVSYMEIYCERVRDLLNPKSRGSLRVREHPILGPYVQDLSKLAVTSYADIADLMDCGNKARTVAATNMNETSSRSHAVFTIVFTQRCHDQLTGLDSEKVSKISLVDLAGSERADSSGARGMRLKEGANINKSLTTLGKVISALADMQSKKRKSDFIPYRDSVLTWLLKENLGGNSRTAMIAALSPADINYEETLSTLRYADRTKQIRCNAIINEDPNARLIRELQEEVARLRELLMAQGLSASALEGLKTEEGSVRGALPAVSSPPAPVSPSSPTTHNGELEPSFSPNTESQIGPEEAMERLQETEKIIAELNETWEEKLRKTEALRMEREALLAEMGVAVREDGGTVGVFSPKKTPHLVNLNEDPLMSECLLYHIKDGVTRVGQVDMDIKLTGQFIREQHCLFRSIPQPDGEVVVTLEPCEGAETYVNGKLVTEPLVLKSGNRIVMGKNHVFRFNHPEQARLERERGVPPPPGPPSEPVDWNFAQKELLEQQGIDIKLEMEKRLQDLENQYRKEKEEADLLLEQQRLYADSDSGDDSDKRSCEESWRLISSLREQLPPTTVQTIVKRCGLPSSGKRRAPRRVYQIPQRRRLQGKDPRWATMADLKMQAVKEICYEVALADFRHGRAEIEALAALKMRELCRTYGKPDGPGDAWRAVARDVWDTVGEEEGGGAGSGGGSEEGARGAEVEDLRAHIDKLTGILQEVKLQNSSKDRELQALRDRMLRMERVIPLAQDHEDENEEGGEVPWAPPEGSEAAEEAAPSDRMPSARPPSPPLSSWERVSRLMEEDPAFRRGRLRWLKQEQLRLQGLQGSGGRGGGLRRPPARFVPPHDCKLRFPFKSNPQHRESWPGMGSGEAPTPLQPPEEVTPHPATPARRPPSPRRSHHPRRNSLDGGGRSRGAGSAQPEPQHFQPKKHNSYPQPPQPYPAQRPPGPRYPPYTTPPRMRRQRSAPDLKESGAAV

[1] = molecular target: T2, Halo-HOOK3^553-718-3XFLAG (human) (UniProt Q86VS8); test: co-IP
T2 sequence: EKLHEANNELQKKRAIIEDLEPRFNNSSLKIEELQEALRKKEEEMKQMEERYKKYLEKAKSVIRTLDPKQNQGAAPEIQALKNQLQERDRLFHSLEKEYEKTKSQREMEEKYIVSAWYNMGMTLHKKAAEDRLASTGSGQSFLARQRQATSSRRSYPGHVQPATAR

[2] = molecular target: T3, HOOK3 (endogenous) (human (endogenous in 293T)) (UniProt Q86VS8); test: co-IP
T3 sequence: T1 sequence

[3] = molecular target: T4, HaloTag-HOOK2-3XFLAG (human) (UniProt Q96ED9); test: co-IP
T4 sequence: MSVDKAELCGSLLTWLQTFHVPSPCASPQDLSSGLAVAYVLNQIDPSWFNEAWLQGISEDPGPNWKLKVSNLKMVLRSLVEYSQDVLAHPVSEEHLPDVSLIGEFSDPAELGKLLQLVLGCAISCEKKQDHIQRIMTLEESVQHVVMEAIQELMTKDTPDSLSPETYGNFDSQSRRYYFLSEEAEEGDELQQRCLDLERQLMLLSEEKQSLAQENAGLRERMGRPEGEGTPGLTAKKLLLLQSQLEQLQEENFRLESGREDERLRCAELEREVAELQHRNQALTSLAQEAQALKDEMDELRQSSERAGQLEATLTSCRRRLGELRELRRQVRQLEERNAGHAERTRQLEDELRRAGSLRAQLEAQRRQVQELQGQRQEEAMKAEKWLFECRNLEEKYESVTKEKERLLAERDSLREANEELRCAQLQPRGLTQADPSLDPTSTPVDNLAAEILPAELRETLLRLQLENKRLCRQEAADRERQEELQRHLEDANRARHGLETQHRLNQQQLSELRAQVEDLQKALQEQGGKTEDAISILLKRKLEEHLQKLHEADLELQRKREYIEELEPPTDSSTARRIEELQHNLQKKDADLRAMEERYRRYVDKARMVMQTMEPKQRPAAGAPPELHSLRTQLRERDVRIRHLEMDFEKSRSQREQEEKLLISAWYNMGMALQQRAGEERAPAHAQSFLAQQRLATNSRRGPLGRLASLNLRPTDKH

[4] = molecular target: Halo-HOOK3^HOOK2-3XFLAG chimera (expressed in 293T) (human) (UniProt Q86VS8); test: co-IP
[5] = molecular target: T5, Halo-HOOK3^1-552-3XFLAG (human) (UniProt Q86VS8); test: co-IP
T5 sequence: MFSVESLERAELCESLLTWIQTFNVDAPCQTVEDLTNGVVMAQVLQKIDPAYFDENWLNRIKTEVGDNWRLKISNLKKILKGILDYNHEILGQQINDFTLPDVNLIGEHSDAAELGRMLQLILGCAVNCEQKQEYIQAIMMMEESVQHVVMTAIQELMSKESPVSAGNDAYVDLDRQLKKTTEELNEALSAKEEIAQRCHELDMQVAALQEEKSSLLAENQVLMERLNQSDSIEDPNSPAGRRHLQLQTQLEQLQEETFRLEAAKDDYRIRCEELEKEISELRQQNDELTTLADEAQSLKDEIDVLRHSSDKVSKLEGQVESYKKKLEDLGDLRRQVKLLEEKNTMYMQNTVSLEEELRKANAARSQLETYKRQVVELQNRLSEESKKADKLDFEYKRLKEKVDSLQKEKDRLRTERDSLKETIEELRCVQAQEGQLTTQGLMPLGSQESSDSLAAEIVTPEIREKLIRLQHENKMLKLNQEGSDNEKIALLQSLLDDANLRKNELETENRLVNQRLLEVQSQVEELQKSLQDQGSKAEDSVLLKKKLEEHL

[6] = molecular target: T6, Halo-HOOK3(1-718)-3XFLAG, full-length HOOK3 (human) (UniProt Q86VS8); test: co-IP
T6 sequence (chain, Alexa-488 via the HaloTag (in the TIRF assays)): T1 sequence

## KIF1C (endogenous) (from UniProt O43896 1-1103)
FLAG-HA-HOOK3 (human)
  binding: binds
[1]
  binding: binds
[2]
  binding: binds
[3]
  binding: no binding
[4]
  binding: no binding
[5]
  binding: no binding
[6]
  binding: binds

From doi:10.1101/508887
